Source: CN109265548A
Results are given in words; binding and its absence hold for the method and conditions named. Some results given as binding are weak or reduced against the parent protein; the word gives no strength.

Sequences of proteins named here, by UniProt entry; tags and fusion partners are left off.
UniProt Q9NZQ7: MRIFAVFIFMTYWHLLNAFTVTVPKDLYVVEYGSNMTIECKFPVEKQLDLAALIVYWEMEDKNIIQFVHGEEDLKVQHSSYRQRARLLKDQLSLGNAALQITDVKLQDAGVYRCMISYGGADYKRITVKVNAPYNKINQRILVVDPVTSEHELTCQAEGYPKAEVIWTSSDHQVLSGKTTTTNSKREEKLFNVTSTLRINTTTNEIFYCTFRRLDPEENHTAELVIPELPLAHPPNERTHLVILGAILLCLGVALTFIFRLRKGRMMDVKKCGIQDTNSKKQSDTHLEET

Target: PD-L1(人) (human) (UniProt Q9NZQ7)
Test: ELISA, antigen coated 0.5 μg per well, nanobody at 10 μg/mL, detection with rabbit anti-HA and HRP goat anti-rabbit

binding: binds
B1: 抗PD-L1Nb15 (VHH)
VHH: QVQLVESGGGSVQAGGALRLSCAASGYTSTSNCMGWFRQAPGKEREGVAAIYTGGGSTYYADSVKGRFTISQDNAKNTVYLQMNSLKPEDTAMYYCAAGDLDPAEYSDYDPTVFNYWGQGTLVTVSS
